According to PubChem BioAssay AID256 (DTP/NCI, 2004):
The list is a part of this screen's results and no random one: it gathers some chemical classes. Other doses and runs of a compound may be missing. T/C: endpoint of the treated group in % of that of the vehicle group. Some entries give survivors of the animals treated and no T/C: the source files T/C as zero there, which appears to mark a toxic dose or a test without result, not a measured value. Some survivor counts are full or nearly so, which does not show that the dose was tolerated: the source hardly ever lists a survival T/C far under the control, and the zero likely stands for such cases as well. Counts of survivors are from the toxicity check (mostly the fifth day) where no day follows; animals may have died later. Schedules are NCI's codes, read here as Q, the interval in days (D) or hours (H), X, the number of doses. Where survival is the endpoint, this PubChem deposit counts one and a half times the control or more as active, and values a quarter to a half above the control carry no call in these data; other NCI protocols may use other cut-offs. Some entries show no survivor count and are marked so; the dose need not have been tolerated. Some entries were tested several times; the results are listed from low to high. Some schedule codes hold Z or #, which are not explained here. Some T/C values are followed by the survivors on the day toxicity was checked, most often the fifth; where neither a count nor a note follows, no animal had died by that day.

System: CD2F1 mice, L1210 leukemia ip, survival T/C
Assay: NCI In Vivo Anticancer Drug Screen. Data for tumor model L1210 Leukemia (intraperitoneal) in CD2F1 (CDF1) mice
Conditions: higher T/C = longer survival
How it was run: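 Antitumor effect is scored in animals hosting a serially transplanted tumor. Values compare compound-dosed animals against vehicle-only controls as a simple quotient.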

[1] = T/C endpoint: mean survival time, dose: 12.5 mg/kg/injection, schedule: Q01DX009 (ip), vehicle: Klucel (hydroxypropylcellulose) (HPC)
[2] = T/C endpoint: mean survival time, dose: 25.0 mg/kg/injection, schedule: Q01DX009 (ip), vehicle: Klucel (hydroxypropylcellulose) (HPC)
[3] = T/C endpoint: mean survival time, dose: 50.0 mg/kg/injection, schedule: Q01DX009 (ip), vehicle: Klucel (hydroxypropylcellulose) (HPC)

Structure (SMILES): C/C(=N/OP(N)(=O)N(CCCl)CCCl)c1ccccc1 (stereo not given)
- T/C (T/C endpoint: mean survival time, dose: 31.25 mg/kg/injection, schedule: Q01DX001 (ip), vehicle: distilled water + Tween-80): 98 % of control
- T/C (T/C endpoint: mean survival time, dose: 62.5 mg/kg/injection, schedule: Q01DX001 (ip), vehicle: distilled water + Tween-80): 98 % of control
- T/C (T/C endpoint: mean survival time, dose: 125.0 mg/kg/injection, schedule: Q01DX001 (ip), vehicle: distilled water + Tween-80): 98 % of control
- T/C (T/C endpoint: mean survival time, dose: 250.0 mg/kg/injection, schedule: Q01DX001 (ip), vehicle: distilled water + Tween-80): 98 % of control [5 of 6 alive]
- T/C (T/C endpoint: mean survival time, dose: 500.0 mg/kg/injection, schedule: Q01DX001 (ip), vehicle: distilled water + Tween-80): 104 % of control

Structure (SMILES): ClCCNCCCl
- T/C (T/C endpoint: mean survival time, dose: 25.0 mg/kg/injection, schedule: Q01DX007 (ip), vehicle: saline): 112 % of control [survivor count not shown]
- T/C (T/C endpoint: mean survival time, dose: 25.0 mg/kg/injection, schedule: Q01DX009 (ip), vehicle: saline): 114 % of control [survivor count not shown]
- T/C (T/C endpoint: mean survival time, dose: 25.0 mg/kg/injection, schedule: Q03DX003 (ip), vehicle: saline): 104 % of control [survivor count not shown]
- T/C (T/C endpoint: mean survival time, dose: 25.0 mg/kg/injection, schedule: Q04DX003 (ip), vehicle: saline): 100 % of control [survivor count not shown]
- T/C (T/C endpoint: mean survival time, dose: 50.0 mg/kg/injection, schedule: Q01DX007 (ip), vehicle: saline): 136 % of control [survivor count not shown]
- T/C (T/C endpoint: mean survival time, dose: 50.0 mg/kg/injection, schedule: Q01DX009 (ip), vehicle: saline): 128 % of control [survivor count not shown]
- T/C (T/C endpoint: mean survival time, dose: 50.0 mg/kg/injection, schedule: Q03DX003 (ip), vehicle: saline): 113 % of control [survivor count not shown]
- T/C (T/C endpoint: mean survival time, dose: 50.0 mg/kg/injection, schedule: Q04DX003 (ip), vehicle: saline): 112 % of control [survivor count not shown]
- T/C (T/C endpoint: mean survival time, dose: 100.0 mg/kg/injection, schedule: Q01DX007 (ip), vehicle: saline): 134 % of control [survivor count not shown]
- T/C (T/C endpoint: mean survival time, dose: 100.0 mg/kg/injection, schedule: Q01DX009 (ip), vehicle: saline): 112 % of control [survivor count not shown]
- T/C (T/C endpoint: mean survival time, dose: 100.0 mg/kg/injection, schedule: Q03DX003 (ip), vehicle: saline): 146 % of control [survivor count not shown]
- T/C (T/C endpoint: mean survival time, dose: 100.0 mg/kg/injection, schedule: Q04DX003 (ip), vehicle: saline): 177 % of control [survivor count not shown]
- T/C (T/C endpoint: median survival time, dose: 18.8 mg/kg/injection, schedule: Q01DX009 (ip), vehicle: saline): 111 [survivor count not shown] and 135 % of control [survivor count not shown]
- T/C (T/C endpoint: median survival time, dose: 37.5 mg/kg/injection, schedule: Q01DX009 (ip), vehicle: saline): 111 [survivor count not shown] and 164 % of control [survivor count not shown]
- T/C (T/C endpoint: median survival time, dose: 75.0 mg/kg/injection, schedule: Q01DX009 (ip), vehicle: saline): 128 % of control [survivor count not shown]

Structure (SMILES): NC(Cc1ccccc1N(CCCl)CCCl)C(=O)O (stereo not given)
- T/C (T/C endpoint: mean survival time, dose: 0.25 mg/kg/injection, schedule: Q01DX010 (ip), vehicle: saline): 165 % of control [survivor count not shown]
- T/C (T/C endpoint: mean survival time, dose: 0.5 mg/kg/injection, schedule: Q01DX010 (ip), vehicle: saline): 180 % of control [survivor count not shown]
- T/C (T/C endpoint: mean survival time, dose: 1.0 mg/kg/injection, schedule: Q01DX010 (ip), vehicle: saline): 226 % of control [survivor count not shown]
- T/C (T/C endpoint: mean survival time, dose: 2.0 mg/kg/injection, schedule: Q01DX010 (ip), vehicle: saline): 98 % of control [survivor count not shown]

Structure (SMILES): NC(Cc1cccc(N(CCCl)CCCl)c1)C(=O)O (stereo not given)
- T/C (T/C endpoint: mean survival time, dose: 2.0 mg/kg/injection, schedule: Q01DX007 (ip), vehicle: saline): 138 % of control [survivor count not shown]
- T/C (T/C endpoint: mean survival time, dose: 2.0 mg/kg/injection, schedule: Q01DX009 (ip), vehicle: saline): 154 % of control [survivor count not shown]
- T/C (T/C endpoint: mean survival time, dose: 2.0 mg/kg/injection, schedule: Q03DX003 (ip), vehicle: saline): 145 % of control [survivor count not shown]
- T/C (T/C endpoint: mean survival time, dose: 2.0 mg/kg/injection, schedule: Q04DX003 (ip), vehicle: saline): 122 % of control [survivor count not shown]
- T/C (T/C endpoint: mean survival time, dose: 4.0 mg/kg/injection, schedule: Q01DX007 (ip), vehicle: saline): 132 % of control [survivor count not shown]
- T/C (T/C endpoint: mean survival time, dose: 4.0 mg/kg/injection, schedule: Q01DX009 (ip), vehicle: saline): 139 % of control [survivor count not shown]
- T/C (T/C endpoint: mean survival time, dose: 4.0 mg/kg/injection, schedule: Q03DX003 (ip), vehicle: saline): 180 % of control [survivor count not shown]
- T/C (T/C endpoint: mean survival time, dose: 4.0 mg/kg/injection, schedule: Q04DX003 (ip), vehicle: saline): 145 % of control [survivor count not shown]
- T/C (T/C endpoint: mean survival time, dose: 8.0 mg/kg/injection, schedule: Q03DX003 (ip), vehicle: saline): 163 % of control [survivor count not shown]
- T/C (T/C endpoint: mean survival time, dose: 8.0 mg/kg/injection, schedule: Q04DX003 (ip), vehicle: saline): 151 % of control [survivor count not shown]

Structure (SMILES): CC(C)=NOP(N)(=O)N(CCCl)CCCl (stereo not given)
- T/C (T/C endpoint: mean survival time, dose: 7.75 mg/kg/injection, schedule: Q01DX001 (ip), vehicle: water): 107 % of control
- T/C (T/C endpoint: mean survival time, dose: 15.5 mg/kg/injection, schedule: Q01DX001 (ip), vehicle: water): 115 % of control
- T/C (T/C endpoint: mean survival time, dose: 31.0 mg/kg/injection, schedule: Q01DX001 (ip), vehicle: water): 128 % of control
- T/C (T/C endpoint: mean survival time, dose: 31.25 mg/kg/injection, schedule: Q01DX001 (ip), vehicle: water): 129 % of control
- T/C (T/C endpoint: mean survival time, dose: 62.0 mg/kg/injection, schedule: Q01DX001 (ip), vehicle: water): 139 % of control
- T/C (T/C endpoint: mean survival time, dose: 62.5 mg/kg/injection, schedule: Q01DX001 (ip), vehicle: water): 127 % of control
- survivor count (T/C endpoint: mean survival time, dose: 125.0 mg/kg/injection, schedule: Q01DX001 (ip), vehicle: water): 5 of 6
- survivor count (T/C endpoint: mean survival time, dose: 250.0 mg/kg/injection, schedule: Q01DX001 (ip), vehicle: water): 5 of 6
- survivor count (T/C endpoint: mean survival time, dose: 500.0 mg/kg/injection, schedule: Q01DX001 (ip), vehicle: water): 0 of 6

Structure (SMILES): C1CCC(NC2CCCCC2)CC1.O=C(O)C(O)c1ccc(N(CCCl)CCCl)cc1 (stereo not given)
- T/C [1]: 127 % of control [survivor count not shown]
- T/C [2]: 121 % of control [survivor count not shown]
- T/C [3]: 128 % of control [survivor count not shown]

Structure (SMILES): COc1ccc(N(CCCl)CCCl)cc1
- T/C (T/C endpoint: mean survival time, dose: 3.12 mg/kg/injection, schedule: Q01DX009 (ip), vehicle: Klucel (hydroxypropylcellulose) (HPC)): 103 % of control [survivor count not shown]
- T/C (T/C endpoint: mean survival time, dose: 6.25 mg/kg/injection, schedule: Q01DX009 (ip), vehicle: Klucel (hydroxypropylcellulose) (HPC)): 108 [survivor count not shown] and 112 % of control [survivor count not shown]
- T/C [1]: 108 [survivor count not shown] and 116 % of control [survivor count not shown]
- T/C [2]: 113 [survivor count not shown] and 122 % of control [survivor count not shown]
- T/C [3]: 96 [survivor count not shown] and 108 % of control [survivor count not shown]
- T/C (T/C endpoint: mean survival time, dose: 100.0 mg/kg/injection, schedule: Q01DX009 (ip), vehicle: Klucel (hydroxypropylcellulose) (HPC)): 89 % of control [survivor count not shown]

Structure (SMILES): O=P(Cl)(Cl)N(CCF)CCCl
- T/C (T/C endpoint: mean survival time, dose: 1.0 mg/kg/injection, schedule: Q01DX Z (ip), vehicle: saline): 94 % of control [survivor count not shown]
- T/C (T/C endpoint: mean survival time, dose: 3.0 mg/kg/injection, schedule: Q01DX Z (ip), vehicle: saline): 97 % of control [survivor count not shown]
- T/C (T/C endpoint: mean survival time, dose: 10.0 mg/kg/injection, schedule: Q01DX Z (ip), vehicle: saline): 123 % of control [survivor count not shown]
